Reference: paper PMC7819943, “Rice protein-binding microarrays: a tool to detect cis-acting elements near promoter regions in rice”
The list shows a part of the results.

By UniProt entry, the sequences of proteins in these tests, tags left out.
UniProt Q0JBA9, entry or part of it: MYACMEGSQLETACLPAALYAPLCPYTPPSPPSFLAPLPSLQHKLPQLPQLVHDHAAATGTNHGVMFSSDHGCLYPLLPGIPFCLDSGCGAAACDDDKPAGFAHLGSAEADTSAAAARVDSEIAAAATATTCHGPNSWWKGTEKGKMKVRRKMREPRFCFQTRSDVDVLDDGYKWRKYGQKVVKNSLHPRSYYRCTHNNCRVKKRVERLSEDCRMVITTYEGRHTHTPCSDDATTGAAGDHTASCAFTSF

Target: OsWRKY34 (Oryza sativa, UniProt Q0JBA9 1-250)
Test: protein-binding microarray (RPBM); PBS, 2% BSA, 51.3 ng/ul salmon testes DNA, 50 uM zinc acetate, 200 nM TF, 25 C, 1 h; high values mean tight binding
Conditions: protein: recombinant; tags: N-terminal polyhistidine and DsRed monomer fusion (pET32a); label: CyDye5-dUTP incorporated in the synthesized complementary strand; 3' TTTTT single-stranded linker to array surface; dsDNA, one strand shown
Procedure, shortened: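 Per-feature fluorescence intensity (arbitrary units), read on an Axon 4000B scanner, is the binding signal. Transcription factors carrying an N-terminal polyhistidine tag and DsRed fusion were expressed in E. coli BL21-CodonPlus and purified on Ni–NTA. A custom Agilent array, made double-stranded by primer extension with Cy5-dUTP and blocked with 2% BSA, was incubated with 200 nM protein in PBS, 2% BSA, salmon testes DNA and 50 µM zinc acetate at 25 °C for 1 h and then washed.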

| Sequence | binding signal |
| --- | --- |
| GTTGTTTTTTTTGGCCTTTGTTTCCACTGCTTCCCGAGTTCGGAGTCACCTAGTGCAG | 10200 fluorescence intensity (a.u.) |
| GCCACTCTTCACCCACCATCCCAGTGCCGATCCAACCGAGCGGAGTCACCTAGTGCAG | 8340 fluorescence intensity (a.u.) |
| GATACCACCCAAAACCGACCCTTACAACCGACATAAAACCCGGAGTCACCTAGTGCAG | 8410 fluorescence intensity (a.u.) |
| TCATCTACCTTGTCCACTCCTCTGCACCGGGCGCCGCGCCCGGAGTCACCTAGTGCAG | 9810 fluorescence intensity (a.u.) |
| AAAGTTCTCTCTTTGCCCTTTTCCTTTTAGCAATAGCTTTCGGAGTCACCTAGTGCAG | 8530 fluorescence intensity (a.u.) |
| CCCCTTGACACTGCCTTTGATGCTCGGCTCTAGCGGTCTTCGGAGTCACCTAGTGCAG | 8370 fluorescence intensity (a.u.) |
| ATAATCCTTGTCTTATGTTTGCTTGATGTCGTACTACGTACGGAGTCACCTAGTGCAG | 9970 fluorescence intensity (a.u.) |
| ATATTTGTGTAACCGCAATGTACGCTACTTGCAATCTACTCGGAGTCACCTAGTGCAG | 8630 fluorescence intensity (a.u.) |
| ATATTTGGTTTTTTTTCGTACTTTTTTTCGCCCGGTTTTTCGGAGTCACCTAGTGCAG | 20800 fluorescence intensity (a.u.) |
| ACTGTTGGTACTTCTTTGGAAAATATGCTGTTGAACTTGTCGGAGTCACCTAGTGCAG | 8970 fluorescence intensity (a.u.) |
| CCCAACCATCAGCAACAATTGCTTCGGCCCAACAACATTCCGGAGTCACCTAGTGCAG | 9460 fluorescence intensity (a.u.) |
| ATCGCTCCACCCACCGCCCGCAATCGCTCCGTCCACCGCCCGGAGTCACCTAGTGCAG | 8470 fluorescence intensity (a.u.) |
| GCAATGATGTGGACTTGTTGAGCCGCCGGCGCCAACATTTCGGAGTCACCTAGTGCAG | 9010 fluorescence intensity (a.u.) |
| TCCACCTTTTTACATACTTATCTGTCTTCGTCAGTATTCACGGAGTCACCTAGTGCAG | 12000 fluorescence intensity (a.u.) |
| GCGGCGCGGCGGGGAGGAGGGAGGGGTGGCGTTGAGGTGGCGGAGTCACCTAGTGCAG | 19300 fluorescence intensity (a.u.) |
| TTATAACATGTTTTGACTTTGATTAAAGTCAAACTACTTCCGGAGTCACCTAGTGCAG | 14100 fluorescence intensity (a.u.) |
| CTAACACATTCATCACATGATTAAAATTTTATTATTTATACGGAGTCACCTAGTGCAG | 8510 fluorescence intensity (a.u.) |
| CTCCCATGCAAACTCTACCTATCTCTGTACCTTCACGCATCGGAGTCACCTAGTGCAG | 8870 fluorescence intensity (a.u.) |
| CCGCCGCCGCCGCCGCCGCCGCCTCCGATGTCCTCGCCGGCGGAGTCACCTAGTGCAG | 10800 fluorescence intensity (a.u.) |
| TTATACCTTTTTCCTCAACGATTCCACAATCACATTTGCCCGGAGTCACCTAGTGCAG | 9710 fluorescence intensity (a.u.) |
| GGGCCTTGGGCGGGTTGGGCTCGAGCGAAGACGTTCCCTCCGGAGTCACCTAGTGCAG | 10600 fluorescence intensity (a.u.) |

| Sequence | binding signal |
| --- | --- |
| CACGGGCCGCCCGTTTCGTCGCGATCACCACCACCAGCATCGGAGTCACCTAGTGCAG | 10800 fluorescence intensity (a.u.) |
| AACTCTTCTTGTCTCTTCACCTCGCCACCGGGGCCGCCATCGGAGTCACCTAGTGCAG | 9390 fluorescence intensity (a.u.) |
| GTCCTTTCAGTGTTGCGCTTTTGCTTATTGTAGTTATTGGCGGAGTCACCTAGTGCAG | 16300 fluorescence intensity (a.u.) |
| GAATTTTGGTAGGATGGGGATGGGGAATTGAGGAAGGAACCGGAGTCACCTAGTGCAG | 10300 fluorescence intensity (a.u.) |
| CTATGGCCTTTTTAGTTGTAATTATATTATCGTTTATTATCGGAGTCACCTAGTGCAG | 9120 fluorescence intensity (a.u.) |
| ACTACCTCGCCATTGCCACCACCAGCAGCAGCTCGCCATCCGGAGTCACCTAGTGCAG | 10500 fluorescence intensity (a.u.) |
| GCCAGGCAGGGGAGGGTCGTTAAGTAGCATCCCATGTCACCGGAGTCACCTAGTGCAG | 8220 fluorescence intensity (a.u.) |
| GAGGTGAGACGGTGGTCTCCCGGATTCGGTGGGTGGTGGGCGGAGTCACCTAGTGCAG | 8220 fluorescence intensity (a.u.) |
| TAGCGCTGTAGTCAGTATTTTTTCAGTGTTGTATCTCACTCGGAGTCACCTAGTGCAG | 10500 fluorescence intensity (a.u.) |
| CATCGTCACGGTTGGTGTTCGGTCTCCGCTCGATCGACTCCGGAGTCACCTAGTGCAG | 11400 fluorescence intensity (a.u.) |
| TTGTCAGTGCCTTAGGCTAGCTTCAGCCTTGTCCATCACTCGGAGTCACCTAGTGCAG | 8740 fluorescence intensity (a.u.) |
| AGACCAAGCCATATCACCTTATGTAATTTCTTTATGTGCTCGGAGTCACCTAGTGCAG | 9010 fluorescence intensity (a.u.) |
| GCAACCGGCTTTCTTTCCTTTCTTTCTTTAATTTCTTTCCCGGAGTCACCTAGTGCAG | 8230 fluorescence intensity (a.u.) |
| TTGTTCTTTTTGGTCTGGTTTTTTTGTGGTTTCTTGATTGCGGAGTCACCTAGTGCAG | 9010 fluorescence intensity (a.u.) |
| GCCACTTTTGCAGTCTATTGGGCCTAGTCTGTGATTATAACGGAGTCACCTAGTGCAG | 8130 fluorescence intensity (a.u.) |
| TGTCTTAGTTCTCTTTTGTTTTTTGGCTGTGCATCCCTGACGGAGTCACCTAGTGCAG | 10800 fluorescence intensity (a.u.) |
| ATGTTGCTTCATTTTCCAGTATTTGTTATTTTATTATTGACGGAGTCACCTAGTGCAG | 11100 fluorescence intensity (a.u.) |
| GTCTACTATTGTACCTGCTCTTAGTTCATGAGTGAATAAACGGAGTCACCTAGTGCAG | 10300 fluorescence intensity (a.u.) |
| GGTGGGTAGTTTTCTGCGTTTTCTTTTGTATTTTTGGTTGCGGAGTCACCTAGTGCAG | 11500 fluorescence intensity (a.u.) |
| GGGGATCACACCTGTTACCACTCGCGGTCTTTTAAACATTCGGAGTCACCTAGTGCAG | 12100 fluorescence intensity (a.u.) |
| GGGTTGGGAAAGATGGGATAAGACCACAGCCTATATGTTCCGGAGTCACCTAGTGCAG | 9200 fluorescence intensity (a.u.) |
